The supplement of paper PMC10849652
The list shows a part of the results. Residues, ends and D or L forms follow the SMILES beside them. *: point of attachment. Cbz = O=C(OCc1ccccc1)*

Sequences of proteins named here, by UniProt entry; tags and fusion partners are left off. A change or cut given only in a name is not applied to a line headed by its entry.
UniProt P16403, whole entry, looked up: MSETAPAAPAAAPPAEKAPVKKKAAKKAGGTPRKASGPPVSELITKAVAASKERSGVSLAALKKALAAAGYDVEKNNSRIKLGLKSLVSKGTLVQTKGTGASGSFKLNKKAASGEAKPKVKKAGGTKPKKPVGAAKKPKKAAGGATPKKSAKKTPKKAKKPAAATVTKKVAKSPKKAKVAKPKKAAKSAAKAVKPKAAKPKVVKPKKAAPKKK
UniProt P49590: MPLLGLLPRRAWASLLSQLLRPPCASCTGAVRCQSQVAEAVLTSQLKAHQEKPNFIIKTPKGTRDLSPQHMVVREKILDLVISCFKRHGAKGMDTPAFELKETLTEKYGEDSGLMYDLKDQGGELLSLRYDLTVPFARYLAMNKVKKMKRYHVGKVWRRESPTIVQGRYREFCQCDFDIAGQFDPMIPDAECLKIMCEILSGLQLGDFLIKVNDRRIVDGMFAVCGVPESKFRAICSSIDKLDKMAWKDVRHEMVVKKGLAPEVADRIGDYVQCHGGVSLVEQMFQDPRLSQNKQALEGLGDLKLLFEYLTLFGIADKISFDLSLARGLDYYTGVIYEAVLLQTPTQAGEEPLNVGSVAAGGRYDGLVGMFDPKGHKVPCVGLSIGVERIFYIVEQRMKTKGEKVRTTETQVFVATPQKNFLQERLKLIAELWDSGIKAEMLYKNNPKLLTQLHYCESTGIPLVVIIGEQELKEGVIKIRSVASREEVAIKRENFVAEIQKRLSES
UniProt P14317: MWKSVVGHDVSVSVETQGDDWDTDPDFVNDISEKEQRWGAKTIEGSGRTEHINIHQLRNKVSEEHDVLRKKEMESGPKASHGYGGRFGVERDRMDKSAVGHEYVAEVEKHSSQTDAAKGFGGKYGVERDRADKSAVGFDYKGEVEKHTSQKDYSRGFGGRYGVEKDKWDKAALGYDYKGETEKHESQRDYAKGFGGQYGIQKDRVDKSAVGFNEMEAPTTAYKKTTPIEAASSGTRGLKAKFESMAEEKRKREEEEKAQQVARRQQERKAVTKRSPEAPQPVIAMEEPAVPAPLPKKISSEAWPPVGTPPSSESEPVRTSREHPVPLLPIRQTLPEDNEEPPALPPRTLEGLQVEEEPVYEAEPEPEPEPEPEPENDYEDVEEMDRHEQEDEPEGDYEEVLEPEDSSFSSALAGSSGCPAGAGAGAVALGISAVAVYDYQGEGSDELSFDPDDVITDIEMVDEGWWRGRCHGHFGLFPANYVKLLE
UniProt P15170, whole entry, looked up: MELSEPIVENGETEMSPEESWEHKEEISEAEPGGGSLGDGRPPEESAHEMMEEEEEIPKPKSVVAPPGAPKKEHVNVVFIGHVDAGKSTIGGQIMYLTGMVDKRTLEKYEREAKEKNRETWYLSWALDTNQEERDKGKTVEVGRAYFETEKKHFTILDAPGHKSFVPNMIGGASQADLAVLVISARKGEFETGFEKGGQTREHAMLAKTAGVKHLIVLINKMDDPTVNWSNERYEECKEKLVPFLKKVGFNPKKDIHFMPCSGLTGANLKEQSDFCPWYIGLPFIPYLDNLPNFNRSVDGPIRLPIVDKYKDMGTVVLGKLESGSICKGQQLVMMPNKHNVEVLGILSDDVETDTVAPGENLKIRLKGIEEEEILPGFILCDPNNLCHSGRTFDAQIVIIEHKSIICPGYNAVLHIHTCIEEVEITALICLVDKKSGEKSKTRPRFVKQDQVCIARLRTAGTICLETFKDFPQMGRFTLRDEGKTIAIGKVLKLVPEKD
UniProt Q9Y2Q3: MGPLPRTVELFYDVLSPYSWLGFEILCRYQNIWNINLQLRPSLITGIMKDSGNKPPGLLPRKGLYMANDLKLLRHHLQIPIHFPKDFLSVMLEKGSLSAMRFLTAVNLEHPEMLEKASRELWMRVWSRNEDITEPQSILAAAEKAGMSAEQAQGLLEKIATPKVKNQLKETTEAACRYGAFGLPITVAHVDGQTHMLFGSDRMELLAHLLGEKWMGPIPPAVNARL
UniProt Q9P035: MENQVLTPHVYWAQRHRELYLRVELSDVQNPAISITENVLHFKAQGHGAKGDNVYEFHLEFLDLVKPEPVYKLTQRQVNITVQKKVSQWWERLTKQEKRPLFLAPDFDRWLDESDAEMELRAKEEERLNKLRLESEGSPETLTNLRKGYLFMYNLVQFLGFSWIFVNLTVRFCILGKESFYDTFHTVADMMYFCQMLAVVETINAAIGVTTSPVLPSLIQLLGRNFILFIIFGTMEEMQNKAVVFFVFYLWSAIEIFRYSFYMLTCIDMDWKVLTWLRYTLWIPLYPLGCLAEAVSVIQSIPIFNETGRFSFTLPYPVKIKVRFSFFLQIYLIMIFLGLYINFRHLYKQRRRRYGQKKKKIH
UniProt Q9NRV9: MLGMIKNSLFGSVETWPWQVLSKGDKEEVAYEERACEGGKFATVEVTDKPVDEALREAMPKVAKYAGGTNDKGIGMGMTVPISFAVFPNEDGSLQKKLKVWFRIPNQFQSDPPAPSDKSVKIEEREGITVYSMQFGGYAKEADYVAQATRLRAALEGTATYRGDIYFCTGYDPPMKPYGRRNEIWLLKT
UniProt P16402, whole entry, looked up: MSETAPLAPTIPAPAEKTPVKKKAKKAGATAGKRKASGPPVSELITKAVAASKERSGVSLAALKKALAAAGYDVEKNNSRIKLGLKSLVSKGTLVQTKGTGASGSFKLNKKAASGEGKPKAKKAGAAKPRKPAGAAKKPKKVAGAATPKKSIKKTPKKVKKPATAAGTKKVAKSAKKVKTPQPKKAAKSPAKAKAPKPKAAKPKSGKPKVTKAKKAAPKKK
UniProt Q9BSH5: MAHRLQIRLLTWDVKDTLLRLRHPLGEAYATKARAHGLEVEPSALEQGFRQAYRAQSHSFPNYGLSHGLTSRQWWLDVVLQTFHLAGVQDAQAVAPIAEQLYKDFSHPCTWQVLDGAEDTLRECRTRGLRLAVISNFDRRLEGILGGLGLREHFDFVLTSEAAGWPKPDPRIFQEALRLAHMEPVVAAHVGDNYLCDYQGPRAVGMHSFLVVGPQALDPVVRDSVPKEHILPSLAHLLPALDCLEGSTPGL
UniProt P48637: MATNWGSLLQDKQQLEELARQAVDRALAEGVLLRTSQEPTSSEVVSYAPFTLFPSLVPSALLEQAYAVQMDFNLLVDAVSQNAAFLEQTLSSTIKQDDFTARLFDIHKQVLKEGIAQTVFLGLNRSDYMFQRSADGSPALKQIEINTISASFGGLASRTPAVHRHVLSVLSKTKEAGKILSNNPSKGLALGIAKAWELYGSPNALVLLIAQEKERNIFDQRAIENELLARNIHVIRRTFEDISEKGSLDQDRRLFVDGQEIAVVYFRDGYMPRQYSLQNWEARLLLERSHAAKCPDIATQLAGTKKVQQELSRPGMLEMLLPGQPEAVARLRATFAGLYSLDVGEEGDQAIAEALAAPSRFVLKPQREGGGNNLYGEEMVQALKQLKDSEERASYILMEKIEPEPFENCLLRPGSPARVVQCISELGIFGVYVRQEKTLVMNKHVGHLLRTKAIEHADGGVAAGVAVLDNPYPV
UniProt O00178: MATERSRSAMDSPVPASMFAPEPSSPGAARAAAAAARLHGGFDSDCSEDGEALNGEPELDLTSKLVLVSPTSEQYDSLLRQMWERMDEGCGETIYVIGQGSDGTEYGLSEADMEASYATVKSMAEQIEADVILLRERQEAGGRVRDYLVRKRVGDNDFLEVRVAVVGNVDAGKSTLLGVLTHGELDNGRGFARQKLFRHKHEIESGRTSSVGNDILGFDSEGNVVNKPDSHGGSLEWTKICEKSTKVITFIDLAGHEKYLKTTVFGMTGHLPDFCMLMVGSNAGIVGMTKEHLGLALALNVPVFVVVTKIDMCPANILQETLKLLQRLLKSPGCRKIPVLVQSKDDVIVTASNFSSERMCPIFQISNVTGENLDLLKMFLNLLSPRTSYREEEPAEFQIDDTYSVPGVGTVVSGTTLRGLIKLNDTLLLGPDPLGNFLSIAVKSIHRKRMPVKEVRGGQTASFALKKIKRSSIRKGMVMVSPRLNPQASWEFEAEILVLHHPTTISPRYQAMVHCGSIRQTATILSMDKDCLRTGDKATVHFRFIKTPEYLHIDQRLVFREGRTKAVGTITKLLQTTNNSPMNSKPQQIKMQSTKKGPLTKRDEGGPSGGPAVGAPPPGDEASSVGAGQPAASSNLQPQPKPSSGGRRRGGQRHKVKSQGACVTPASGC
UniProt Q8N4P3, whole entry, looked up: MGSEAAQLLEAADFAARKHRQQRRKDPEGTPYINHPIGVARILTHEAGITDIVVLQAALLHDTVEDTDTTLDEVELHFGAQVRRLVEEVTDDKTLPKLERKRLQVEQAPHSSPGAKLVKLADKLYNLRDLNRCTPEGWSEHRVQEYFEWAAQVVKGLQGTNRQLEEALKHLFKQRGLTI
UniProt Q96CS2: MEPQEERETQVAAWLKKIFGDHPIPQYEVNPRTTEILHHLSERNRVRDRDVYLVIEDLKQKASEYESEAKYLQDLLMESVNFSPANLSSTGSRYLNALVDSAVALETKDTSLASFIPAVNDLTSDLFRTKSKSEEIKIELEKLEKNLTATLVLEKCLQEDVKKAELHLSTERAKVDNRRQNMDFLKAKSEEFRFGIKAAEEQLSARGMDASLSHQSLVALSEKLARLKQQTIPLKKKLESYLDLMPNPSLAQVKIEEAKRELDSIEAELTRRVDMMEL
UniProt Q9UJ83: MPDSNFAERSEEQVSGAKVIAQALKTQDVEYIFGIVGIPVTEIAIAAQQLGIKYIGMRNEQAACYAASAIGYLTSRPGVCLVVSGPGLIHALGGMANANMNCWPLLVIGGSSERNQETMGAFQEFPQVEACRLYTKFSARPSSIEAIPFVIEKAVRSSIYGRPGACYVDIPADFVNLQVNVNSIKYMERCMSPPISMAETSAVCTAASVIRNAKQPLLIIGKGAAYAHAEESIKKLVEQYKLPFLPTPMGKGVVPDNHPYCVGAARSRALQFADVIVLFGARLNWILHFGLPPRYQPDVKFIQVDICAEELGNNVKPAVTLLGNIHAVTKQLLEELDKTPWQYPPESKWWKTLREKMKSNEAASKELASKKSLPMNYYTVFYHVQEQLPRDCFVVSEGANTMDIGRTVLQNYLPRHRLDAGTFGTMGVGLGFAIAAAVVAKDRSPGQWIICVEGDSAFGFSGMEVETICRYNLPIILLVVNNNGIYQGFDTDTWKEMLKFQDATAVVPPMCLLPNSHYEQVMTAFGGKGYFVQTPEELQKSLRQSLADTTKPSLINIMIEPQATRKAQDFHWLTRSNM
UniProt P02042: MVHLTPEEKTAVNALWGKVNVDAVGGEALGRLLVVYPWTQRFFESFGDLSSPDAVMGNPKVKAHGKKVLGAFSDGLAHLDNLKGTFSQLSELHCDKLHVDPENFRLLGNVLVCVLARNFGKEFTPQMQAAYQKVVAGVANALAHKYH

Legend:
Assay in all cases: log2 fold change, soluble protein after heating vs DMSO (PISA); higher = thermal stabilisation; K562 cells, 10 uM, 30 min; active = over 0.2 and 3.5 SD of the protein, either way, in both replicates (recomputed)
[1] = compound: C1COCCN1CCN2C3=CC=CC=C3N=C2NC(=O)C4=CC(=CC=C4)[N+](=O)[O-] [IRAK-1-4 Inhibitor I]
Summary of the method: (§1)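 For each measurement, 10 μM compound was applied for 30 min to K562 cells at 2×10^6 cells/mL. Aliquots were heated for 3 min across 48°C-58°C, pooled, and extracted in PBS with 0.5% NP-40 at 4°C; the supernatant after 21,000xg for 90 min was soluble protein. This was quantified by TMTpro 16plex LC-MS/MS with channel sums equalised, and thermal stability was reported relative to control samples from duplicates, on a log2 fold-change scale.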

[2] = compound: C=CC(=O)N1CCC[C@@H](n2nc(-c3ccc(Oc4ccccc4)cc3)c3c(N)ncnc32)C1 [ibrutinib]
Summary of the method: as §1

[3] = compound: CC(=O)c1cnc2ccc(-c3cc(Cl)c(O)c(Cl)c3)nc2c1N[C@H]1CC[C@H](CN(C)C)CC1
Summary of the method: as §1

[4] = compound: CC(C)(C)Cn1c(N)nc2ccc(-c3[nH]c(C(C)(C)C)nc3-c3ccc(F)cc3)nc21 [ralimetinib]
Summary of the method: as §1

[5] = compound: CC(C)(O)CC(=O)NCCn1ccc2ncnc(Nc3ccc(Oc4cccc(C(F)(F)F)c4)c(Cl)c3)c21
Summary of the method: as §1

[6] = compound: CC(C)C1=C2N=C(C=C(N2N=C1)NCC3=CC=CC=C3)NCCCCCCN
Summary of the method: as §1

[7] = compound: CC(C)C[C@@H](C=O)NC(=O)[C@H](CC(C)C)NC(=O)[C@H](CC(C)C)NC(=O)OCc1ccccc1
Summary of the method: as §1

[8] = compound: CC(C)N(C[C@H]1O[C@@H](n2cnc3c(N)ncnc32)[C@H](O)[C@@H]1O)[C@H]1C[C@@H](CCc2nc3cc(C(C)(C)C)ccc3[nH]2)C1 [pinometostat]
Summary of the method: as §1

[9] = compound: CC1=C(C(CC(=O)N1)C2=CC=C(C=C2)C(F)(F)F)C(=O)NC3=C(C=C4C(=C3)C=NN4)F
Summary of the method: as §1

[10] = compound: CC1=C(C2=C(C=C1)C(=O)C3=CC=CC=C3N2CCCN)C
Summary of the method: as §1

[11] = compound: CC1=C(C=C(C=C1)NC(=O)C2=CC(=CC=C2)C(C)(C)C#N)NC3=CC4=C(C=C3)N=CN(C4=O)C
Summary of the method: as §1

[12] = compound: CC1=C(C=C(C=C1)NC(=O)C2=CC(=CC=C2)N(C)C)NC(=O)C3=CC=C(C=C3)O
Summary of the method: as §1

[13] = compound: CC1=CC=C(C=C1)SC2=C3C=C(SC3=CN=C2)C(=O)N
Summary of the method: as §1

[14] = compound: CC1=NC(=CC=C1)C2=C(N=C(N2)C(C)(C)C)C3=CC4=NC=CN=C4C=C3
Summary of the method: as §1

[15] = compound: CCCCN(Cc1ccc(C(=O)NO)cc1)C(=O)Nc1ccccc1 [Nexturastat A]
Summary of the method: as §1

[16] = compound: CCCS(=O)(=O)Nc1ccc(F)c(C(=O)c2c[nH]c3ncc(-c4ccc(Cl)cc4)cc23)c1F [vemurafenib]
Summary of the method: as §1

[17] = compound: CCCS(=O)(=O)Nc1ccc(F)c(C(=O)c2c[nH]c3ncc(Cl)cc23)c1F
Summary of the method: as §1

[18] = compound: CCCc1cc(C)[nH]c(=O)c1CNC(=O)c1cc(-c2ccnc(N3CCN(C)CC3)c2)cc2c1cnn2C(C)C
Summary of the method: as §1

[19] = compound: CCN(CC)Cc1ccc2cc(COC(=O)Nc3ccc(C(=O)NO)cc3)ccc2c1 [givinostat]
Summary of the method: as §1

[20] = compound: CCN(CCCOc1ccc2c(Nc3cc(CC(=O)Nc4cccc(F)c4)[nH]n3)ncnc2c1)CCOP(=O)(O)O [barasertib]
Summary of the method: as §1

Measured: log2 fold change

H1-2 (UniProt P16403)
inactive: [1] -0.132 | [2] 0.027 | [3] 0.051 | [4] 0.138 | [5] 0.161 | [6] -0.003 | [7] 0.073 | [8] 0.41 | [9] 0.022 | [10] 0.623 | [11] 0.069 | [12] -0.036 | [13] -0.072 | [14] -0.08 | [15] 0.54 | [16] -0.148 | [17] -0.118 | [18] 0.203 | [19] 0.149 | [20] -0.174

HARS2 (UniProt P49590)
inactive: [1] 0.029 | [2] 0.036 | [3] -0.048 | [4] -0.014 | [5] -0.047 | [6] 0.003 | [7] -0.016 | [8] -0.014 | [9] 0.035 | [10] 0.043 | [11] -0.039 | [12] 0.003 | [13] -0.009 | [14] -0.053 | [15] -0.018 | [16] -0.009 | [17] -0.057 | [18] -0.016 | [19] -0.096 | [20] -0.011

HCLS1 (UniProt P14317)
inactive: [1] 0.059 | [2] 0.013 | [3] -0.012 | [4] -0.067 | [5] -0.029 | [6] 0.005 | [7] 0.003 | [8] -0.025 | [9] 0.011 | [10] -0.027 | [11] -0.031 | [12] 0.053 | [13] 0.026 | [14] -0.008 | [15] -0.013 | [16] 0.056 | [17] -0.003 | [18] -0.024 | [19] -0.036 | [20] 0.01

GSPT1 isoform 3 (UniProt P15170)
inactive: [1] 0.058 | [2] -0.01 | [3] 0 | [4] -0.033 | [5] -0.029 | [6] 0.015 | [7] -0.01 | [8] 0.005 | [9] -0.028 | [10] 0.12 | [11] 0.056 | [12] -0.001 | [13] -0.014 | [14] -0.002 | [15] -0.036 | [16] -0.008 | [17] 0 | [18] -0.064 | [19] -0.043 | [20] 0.003

GSTK1 (UniProt Q9Y2Q3)
inactive: [1] -0.006 | [2] -0.025 | [3] -0.073 | [4] -0.035 | [5] -0.045 | [6] 0.061 | [7] 0 | [8] -0.053 | [9] -0.014 | [10] 0.106 | [11] 0.041 | [12] -0.019 | [13] 0.031 | [14] 0.064 | [15] -0.023 | [16] 0.117 | [17] -0.012 | [18] -0.029 | [19] 0.019 | [20] 0.03

HACD3 (UniProt Q9P035)
inactive: [1] 0.001 | [2] -0.043 | [3] 0.005 | [4] -0.089 | [5] -0.006 | [6] -0.088 | [7] -0.014 | [8] 0.007 | [9] -0.014 | [10] 0.047 | [11] -0.019 | [12] -0.014 | [13] -0.008 | [14] 0.015 | [15] 0.012 | [16] -0.017 | [17] 0.04 | [18] 0.033 | [19] 0.003 | [20] -0.003

HEBP1 (UniProt Q9NRV9)
inactive: [1] 0.237 | [2] 0.06 | [3] -0.022 | [4] 0.135 | [5] 0.069 | [6] 0.394 | [7] -0.267 | [8] 0.101 | [9] -0.158 | [10] 0.018 | [11] 0.393 | [12] 0.234 | [13] 0.039 | [14] -0.091 | [15] -0.006 | [16] 0.037 | [17] 0.012 | [18] 0.264 | [19] -0.07 | [20] -0.014

H1-3 (UniProt P16402)
inactive: [1] -0.049 | [2] 0.042 | [3] 0.103 | [4] 0.16 | [5] 0.017 | [6] -0.062 | [7] 0.074 | [8] 0.317 | [9] 0.046 | [10] 0.669 | [11] 0.047 | [12] 0.025 | [13] -0.014 | [14] -0.136 | [15] 0.405 | [16] -0.116 | [17] -0.013 | [18] 0.191 | [19] 0.162 | [20] -0.117

HERC1 (UniProt Q15751)
inactive: [1] -0.004 | [2] -0.033 | [3] 0.065 | [4] 0.052 | [5] -0.001 | [6] -0.061 | [7] -0.051 | [8] 0.037 | [9] -0.009 | [10] 0.01 | [11] -0.019 | [12] -0.011 | [13] -0.023 | [14] 0 | [15] -0.026 | [16] -0.02 | [17] 0.022 | [18] 0.024 | [19] -0.011 | [20] 0.008

HDHD3 (UniProt Q9BSH5)
inactive: [1] 0.013 | [2] 0.013 | [3] -0.13 | [4] -0.05 | [5] -0.047 | [6] -0.019 | [7] 0.018 | [8] -0.038 | [9] -0.021 | [10] 0.071 | [11] 0.051 | [12] -0.005 | [13] -0.007 | [14] -0.091 | [15] -0.14 | [16] 0.002 | [17] -0.003 | [18] -0.013 | [19] 0.018 | [20] 0.013

GSS (UniProt P48637)
inactive: [1] 0.038 | [2] 0 | [3] 0.002 | [4] -0.013 | [5] -0.013 | [6] 0.059 | [7] -0.028 | [8] -0.053 | [9] 0.016 | [10] 0.002 | [11] -0.017 | [12] 0.01 | [13] 0.032 | [14] 0.012 | [15] -0.08 | [16] -0.009 | [17] 0.015 | [18] -0.024 | [19] -0.072 | [20] -0.014

GTPBP1 (UniProt O00178)
inactive: [1] 0.026 | [2] 0.009 | [3] -0.02 | [4] 0 | [5] 0.014 | [6] 0.001 | [7] 0.037 | [8] 0.038 | [9] -0.008 | [10] -0.053 | [11] -0.036 | [12] -0.032 | [13] 0.011 | [14] -0.028 | [15] 0.022 | [16] 0.018 | [17] 0.009 | [18] 0.05 | [19] 0.004 | [20] 0.014

HDDC3 (UniProt Q8N4P3)
inactive: [1] 0.079 | [2] 0.004 | [3] -0.019 | [4] -0.045 | [5] -0.008 | [6] 0.025 | [7] 0.042 | [8] 0.026 | [9] 0.027 | [10] 0.02 | [11] -0.001 | [12] 0.023 | [13] -0.001 | [14] -0.003 | [15] -0.07 | [16] -0.041 | [17] -0.029 | [18] -0.053 | [19] -0.03 | [20] 0.002

HAUS1 (UniProt Q96CS2)
inactive: [1] 0.012 | [2] -0.042 | [3] 0.062 | [4] 0.052 | [5] 0 | [6] -0.094 | [7] 0.12 | [8] 0.051 | [9] 0.131 | [10] -0.089 | [11] -0.135 | [12] -0.07 | [13] 0.049 | [14] -0.142 | [15] 0.19 | [16] -0.093 | [17] 0.114 | [18] 0.102 | [19] 0.112 | [20] 0.033

HACL1 (UniProt Q9UJ83)
inactive: [1] 0.021 | [2] -0.01 | [3] -0.01 | [4] -0.002 | [5] -0.094 | [6] 0.054 | [7] -0.081 | [8] -0.019 | [9] 0.003 | [10] 0 | [11] 0.041 | [12] 0 | [13] 0 | [14] -0.024 | [15] -0.119 | [16] 0.03 | [17] -0.003 | [18] -0.008 | [19] -0.011 | [20] -0.011

HBD (UniProt P02042)
inactive: [1] -0.019 | [2] 0.121 | [3] 0 | [4] -0.062 | [5] -0.009 | [6] 0.07 | [7] -0.07 | [8] -0.062 | [9] 0.025 | [10] 0.088 | [11] -0.093 | [12] -0.101 | [13] 0.102 | [14] 0.045 | [15] 0.039 | [16] 0.139 | [17] -0.059 | [18] -0.065 | [19] -0.048 | [20] 0.048
